Screening data

Source: PubChem BioAssay AID912 (NCATS, 2007).

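A cell-based FRET test of anthrax lethal toxin entry, tracked through the 460 nm emission signal; the cell line is not named here. Each compound was tested as a concentration series from about 0.0005 to 40 µM. The number is the fitted AC50 of the 460 nm signal alone; lower values mean a more potent effect. A falling signal goes with compounds filed as inhibitors or cytotoxic, a rising one with activators or fluorescent compounds (inferred from the filed classes).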

Values are in µM. Common to all entries: measured here: 460 nm channel. Part of the compounds only, not a random draw; the main read-out is not listed here. Potencies fitted to partial, single-point or poorly fitting curves are rough. The first word of each remark tells which way the curve ran; it can be opposite to the aim of the assay.

- O=C(/C=C\Nc1ccccn1)c1ccc(Cl)cc1 : AC50 31.62 µM (falling, single point)
- O=C1C2(Cl)C3(Cl)C4(Cl)C(Cl)(Cl)C5(Cl)C3(Cl)C1(Cl)C5(Cl)C24Cl (stereo not shown) : AC50 15.85 µM (falling, partial curve)
- CN(C)c1ccc(C(c2ccc(N(C)C)cc2)c2ccc([N+](=O)[O-])cc2)cc1 : AC50 3.162 µM (falling, single point)
- Cc1cc(Cc2cc(C)cc(C(C)(C)C)c2O)c(O)c(Cc2cc(C)cc(C(C)(C)C)c2O)c1 : AC50 2.512 µM (falling, partial curve)
- CCc1ccc(NC(=O)CSc2nnc(Cc3cccn3C)n2-c2ccc(F)cc2)cc1 : AC50 12.59 µM (falling, partial curve)
- O=C(O)CC/C=C\CC[C@H]1[C@@H](N2CCCCC2)[C@@H](O)C[C@@H]1OCc1ccc(-c2ccccc2)cc1 : AC50 3.162 µM (rising, partial curve)
- CCN1CCN(c2cc(C)c3cc(NC(=O)c4cncc(Br)c4)ccc3n2)CC1 : AC50 31.62 µM (falling, single point)
- C[C@H](CCC(=O)O)[C@H]1CC[C@H]2[C@@H]3[C@H](O)C[C@@H]4C[C@H](O)CC[C@]4(C)[C@H]3C[C@H](O)[C@]12C : AC50 31.62 µM (falling, partial curve)
- COc1ccc(NC(=O)CSc2nnc(Cc3cccn3C)n2CCc2ccccc2)cc1OC : AC50 0.5012 µM (falling, partial curve, poor fit)
- CCN(CC)c1ccc2c(c1)OC(N)=C(C#N)C2c1cccnc1 (stereo not shown) : AC50 0.5012 µM (falling, partial curve, poor fit)
- Cn1c(SCC(=O)c2ccc(F)cc2)nnc1-c1ccccc1N : AC50 25.12 µM (rising, single point)
- COc1cc2c3cc1Oc1c(O)c(OC)cc4c1[C@@H](Cc1ccc(cc1)Oc1cc(ccc1O)C[C@H]3N(C)CC2)N(C)CC4 : AC50 5.012 µM (falling, single point)
- COCCn1c(=O)c(-c2cccs2)nc2cnc(N(C)C)nc21 : AC50 12.59 µM (rising, partial curve)
- O=C(Oc1ccccc1)c1ccc2nccnc2c1 : AC50 0.5012 µM (falling, full curve)
- CC(C)CN1CCCC2(CCN(S(=O)(=O)c3ccccc3)CC2)C1 : AC50 31.62 µM (rising, single point)
- CCOc1ccccc1NC(=O)C1CCCN(S(=O)(=O)c2ccc(OC)c(C)c2)C1 (stereo not shown) : AC50 5.012 µM (rising, single point)
- O=C(Nc1cccc(F)c1)N1CCC2(CC1)CCN(C(=O)c1ccco1)CC2 : AC50 15.85 µM (rising, partial curve)
- COC(=O)C1=C(C)NC(C)=C(C(=O)OC)C1c1cc2cc(C)ccc2[nH]c1=O : AC50 15.85 µM (falling, partial curve)
- COC(=O)Nc1nc2ccc(C(=O)c3cccs3)cc2[nH]1 : AC50 0.1585 µM (falling, full curve, poor fit)
- Cc1ccc(C(=N)c2ccccc2Cc2cccc3ccccc23)c2ccccc12 : AC50 3.162 µM (falling, partial curve)
- COc1ccccc1N1CCN(C(=O)Cn2nnc(-c3cccs3)n2)CC1 : AC50 0.01 µM (rising, full curve, poor fit)
- N#Cc1c(NC(NC(=O)c2ccco2)C(=O)c2ccccc2)sc2c1CCCC2 (stereo not shown) : AC50 10 µM (falling, partial curve)
- COCCn1c(SCc2ccccc2Cl)nc2c1c(=O)[nH]c(=O)n2C : AC50 0.01995 µM (falling, full curve, poor fit)
- COC(=O)c1cc(N2C(=O)C3C(C2=O)C2(C)C=CC3(C)O2)ccc1Cl (stereo not shown) : AC50 15.85 µM (falling, partial curve)
- CCOc1ccccc1-n1nnnc1SCC(=O)Nc1cc2oc3ccccc3c2cc1OC : AC50 1.995 µM (falling, single point)
- Cc1nc2ccc(NC(=O)Nc3ccnc4cccnc34)cc2o1 : AC50 12.59 µM (falling, partial curve)
- O=C1C2C(C(=O)N1Cc1cccnc1)C1C=CC2C12CC2 (stereo not shown) : AC50 0.1259 µM (falling, full curve)
- COc1ncc2nc(-c3cc(F)cc(F)c3)c(=O)n(Cc3cccs3)c2n1 : AC50 15.85 µM (rising, single point)
- O=C(Oc1ccccc1)N1CCC2(CCCN(c3cccc(-c4ccccc4)c3)C2)CC1 : AC50 12.59 µM (falling, partial curve)
- CCOC(=O)N1CCN(CC(=O)Nc2cc(C)nn2-c2nc3ccccc3s2)CC1 : AC50 0.03981 µM (falling, full curve, poor fit)
- CCCCCn1c(CN2CCN(Cc3ccccc3)CC2)nc2c1c(=O)n(C)c(=O)n2C : AC50 6.31 µM (rising, partial curve)

2 of the entries, repeated:

{"compound": "CCOC(=O)N1CCN(CC(=O)Nc2cc(C)nn2-c2nc3ccccc3s2)CC1", "AC50 (µM)": "0.03981", "curve": "falling, full curve, poor fit"}
{"compound": "CCN(CC)c1ccc2c(c1)OC(N)=C(C#N)C2c1cccnc1", "stereo": "stereo not shown", "AC50 (µM)": "0.5012", "curve": "falling, partial curve, poor fit"}